Patent publication US8772335B2, “Adamantyl derivatives as therapeutic agents” (Women & Infants' Hospital of Rhode Island, priority 2011, dated 2014)
For part of these data: At least one compound was matched to its structure with a doubt left. Some entries share one result that the patent states for a list of compounds.

Assays:
Format in all cases: cell-based
[1] = test system: SKOV-3 cells; assay: Cell cycle progression of SKOV-3 cells (propidium iodide, FACS); conditions: for effect on cell cycle phases (in words): SKOV-3 ovarian cancer cells
Protocol: SKOV-3 cells (˜1 million) were seeded in complete DMEM media in 10 cm^2 dishes and allowed to adhere overnight. Media was removed and supplemented with AMITC and AC-AM (10 μM) or vehicle and cells were harvested at 4, 12, 18, 32, and 48 hours. The cells were washed and fixed with cold 70% ethanol/H2O. After 1 hour, ethanol was removed and 500 μL of propidinium iodide (PI) (1 mg/10 mL) was added to each tube containing cells. The distribution of the cell population in various phases of cell-cycle was analyzed using FACS. 10,000 events were chosen from each sample.

[2] = test system: various types of tumor cells; assay: MTS cell viability, panel of cancer cell lines; conditions: MTS assay
[3] = test system: immortalized TCL-1 trophoblasts; assay: MTS cell viability, immortalized trophoblasts (control cells); conditions: drug concentrations of 40 μM
Protocol: Cancer cells derived from neuroblastoma (SMSKCNR), ovarian (SKOV-3), prostate (PC-3), cervical (HeLa), skin (a431), immortalized lung fibroblasts (MRCS) and immortalized trophoblasts (TCL-1) were seeded (5000-10000) in a 96 well plate in complete medium as recommended by ATCC and allowed to adhere overnight. Medium was replaced with fresh complete medium containing various concentrations of compound (2) and (3). The cells were incubated under standard humidified incubator (5% CO2) for 48 hours. The medium was replaced again with 100 μL of complete RPMI medium containing MTS reagent (Cell titre 96 aqueous one solution cell proliferation assay, Promega, Madison, Wis.) and incubated for 1-6 hours until violet farmazon color developed (the optical density (OD) of the color was read with an ELISA plate reader at 492 nm wavelength). The OD values of the treatment wells were plotted against vehicle OD as 100% cell viablity using MS excel software.
Cancer cells derived from neuroblastoma (SMSKCNR), ovarian (SKOV-3), prostate (PC-3), endometrial (ECC-1, AN3CA, KLE), breast (MCF-7) and trophoblasts (TCL-1) were seeded (5000-10000 cells/well) in a 96 well plate in complete medium as recommended by ATCC and allowed to adhere overnight. The medium was replaced with fresh complete medium containing ascorbic acid (500 μM) and added various concentrations of AC-AM. […]

[4] = test system: SKOV-3 cells; assay: Reactive oxygen species production, DCF staining by FACS; conditions: 10 μM, 24 hrs, majority of treated cells vs control cells
[5] = test system: SKOV-3 cells; assay: TUNEL assay of AC-AM induced apoptosis; conditions: within 24 hours
[6] = test system: ovarian cancer (SKOV-3) cells; assay: MTS viability after pretreatment with MAPK or SAPK/JNK inhibitors; conditions: inhibitors 40 μM, 48 hours
[7] = test system: ovarian cancer (SKOV-3) cells; assay: MTS viability after pretreatment with caspase inhibitors; conditions: inhibitors 40 μM, 48 hours

CC(=O)NC(CSC(=S)NCC12CC3CC(CC(C3)C1)C2)C(=O)O (stereo not drawn) [AC-AM]
sub-G1 population (in words) ([1]; SKOV-3 cells, 10 μM): increase of sub-G1 population
effect on cell cycle phases (in words) [1]: accumulation of the cells in G2/M phase while G1 phase population steadily decreased
effect on cell cycle phases (in words) ([1]; listed as adamantyl-N-acetylcystein): arrest ovarian cancer cells in G2/M phase
drug concentrations that diminished the viability of various types of tumor cells [2]: ≥ 10 µM
viability of immortalized TCL-1 trophoblasts [3]: not significantly affected
DCF staining (reactive oxygen species) [4]: positive DCF staining
DNA nicks (TUNEL) [5]: causes DNA nicks
effect of MAP kinase inhibitor pretreatment on AC-AM induced cell death [6]: rescued the cell from undergoing apoptosis to varying degree
effect of caspase-3 inhibitor pretreatment on AC-AM induced cell death [7]: rescued the cell from undergoing apoptosis to a varying degree
